Experimental data as given in paper PMC4609755.
No constants are given. Whether binding was seen depends on the method and setting. Binding seen in cells or lysates may run through a third protein. A yes stands for co-enrichment or nearness to the bait. Other partners may have been found.

By UniProt entry, the sequences of proteins in these tests, tags left out. Residues count along the entry.
UniProt Q9WV18, residues 20-960: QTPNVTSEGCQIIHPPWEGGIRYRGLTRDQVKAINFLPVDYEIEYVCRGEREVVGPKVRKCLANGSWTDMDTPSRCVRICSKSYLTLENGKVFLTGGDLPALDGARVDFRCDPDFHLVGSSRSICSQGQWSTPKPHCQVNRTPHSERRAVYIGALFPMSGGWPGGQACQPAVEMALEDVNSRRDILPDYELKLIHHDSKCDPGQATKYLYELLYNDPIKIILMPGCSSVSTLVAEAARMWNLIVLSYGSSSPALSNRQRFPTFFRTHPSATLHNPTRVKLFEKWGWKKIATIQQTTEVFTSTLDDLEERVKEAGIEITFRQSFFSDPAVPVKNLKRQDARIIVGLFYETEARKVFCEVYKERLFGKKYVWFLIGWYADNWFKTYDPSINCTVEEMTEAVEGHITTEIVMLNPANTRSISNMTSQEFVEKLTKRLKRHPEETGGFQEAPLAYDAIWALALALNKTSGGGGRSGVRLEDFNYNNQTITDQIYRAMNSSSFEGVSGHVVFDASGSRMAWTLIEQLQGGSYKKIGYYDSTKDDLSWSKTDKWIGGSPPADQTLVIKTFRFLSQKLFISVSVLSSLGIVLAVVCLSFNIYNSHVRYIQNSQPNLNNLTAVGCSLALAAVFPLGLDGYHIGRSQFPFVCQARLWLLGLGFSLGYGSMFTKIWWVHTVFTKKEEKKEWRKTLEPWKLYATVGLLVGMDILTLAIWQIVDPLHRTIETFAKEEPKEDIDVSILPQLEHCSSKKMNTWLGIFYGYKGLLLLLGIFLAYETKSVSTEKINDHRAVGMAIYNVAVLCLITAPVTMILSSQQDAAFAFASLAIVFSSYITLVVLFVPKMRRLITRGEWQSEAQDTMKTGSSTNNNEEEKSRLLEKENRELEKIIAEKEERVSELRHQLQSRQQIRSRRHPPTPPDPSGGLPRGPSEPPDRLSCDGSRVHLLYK
UniProt P28652: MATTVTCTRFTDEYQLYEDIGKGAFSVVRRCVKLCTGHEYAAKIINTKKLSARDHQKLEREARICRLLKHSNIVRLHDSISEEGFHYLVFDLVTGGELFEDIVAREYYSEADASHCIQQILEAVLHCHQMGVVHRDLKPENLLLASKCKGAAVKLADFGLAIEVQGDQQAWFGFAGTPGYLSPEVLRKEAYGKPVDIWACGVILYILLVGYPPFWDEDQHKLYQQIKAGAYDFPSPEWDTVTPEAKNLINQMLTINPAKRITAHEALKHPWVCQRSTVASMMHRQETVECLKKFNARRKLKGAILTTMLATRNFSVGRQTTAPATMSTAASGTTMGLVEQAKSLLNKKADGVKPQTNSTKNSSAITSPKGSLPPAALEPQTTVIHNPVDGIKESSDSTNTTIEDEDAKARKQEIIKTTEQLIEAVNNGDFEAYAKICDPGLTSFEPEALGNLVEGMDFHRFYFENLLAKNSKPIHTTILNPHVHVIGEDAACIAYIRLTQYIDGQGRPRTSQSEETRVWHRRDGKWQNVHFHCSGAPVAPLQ
UniProt P11798: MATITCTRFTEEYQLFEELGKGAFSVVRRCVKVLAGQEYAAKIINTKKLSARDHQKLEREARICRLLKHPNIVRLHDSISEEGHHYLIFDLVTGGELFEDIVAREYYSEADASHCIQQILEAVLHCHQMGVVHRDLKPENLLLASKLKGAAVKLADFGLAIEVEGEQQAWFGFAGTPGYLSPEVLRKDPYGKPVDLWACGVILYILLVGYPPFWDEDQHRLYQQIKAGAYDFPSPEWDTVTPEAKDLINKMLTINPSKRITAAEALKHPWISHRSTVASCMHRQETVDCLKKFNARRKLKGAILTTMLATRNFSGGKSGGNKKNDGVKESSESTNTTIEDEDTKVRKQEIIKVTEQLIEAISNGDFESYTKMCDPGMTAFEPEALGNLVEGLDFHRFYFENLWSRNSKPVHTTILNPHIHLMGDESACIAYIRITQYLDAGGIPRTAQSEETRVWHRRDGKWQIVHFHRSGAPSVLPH

Target: GABAB1 receptor subunit (mouse (endogenous in C57BL/6J hippocampus)) (UniProt Q9WV18)
Assay: affinity purification with mass spectrometry; immunoprecipitation of endogenous GABAB1 from total hippocampal membrane fractions (1% Triton X100, 150 mM NaCl, 1 mM EDTA, 50 mM Tris-HCl pH 8.0) with anti-GABAB1 antibody and protein G agarose, 4°C; SDS-PAGE, bands digested in gel, nano-LC-ESI-CID/ETD-MS/MS

binding | Substance
binds | Calcium/calmodulin-dependent protein kinase II beta subunit (from UniProt P28652 1-542) (enzyme)
binds | Calcium/calmodulin-dependent protein kinase II alpha subunit (from UniProt P11798 1-478) (enzyme)
